Data published in the supplement of paper PMC10849652.
This is one part of the list.

By UniProt entry, the sequences of proteins in these tests, tags left out. Where a name states a change or a piece, a line headed by the entry shows the natural chain unless it says otherwise.
UniProt O75940: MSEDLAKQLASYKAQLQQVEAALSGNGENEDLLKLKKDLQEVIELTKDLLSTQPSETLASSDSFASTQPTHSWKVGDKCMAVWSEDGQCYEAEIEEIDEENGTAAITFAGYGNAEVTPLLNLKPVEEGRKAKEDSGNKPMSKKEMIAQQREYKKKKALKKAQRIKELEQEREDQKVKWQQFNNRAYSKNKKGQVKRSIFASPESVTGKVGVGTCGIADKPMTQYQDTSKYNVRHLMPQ
UniProt O75643, whole entry, looked up: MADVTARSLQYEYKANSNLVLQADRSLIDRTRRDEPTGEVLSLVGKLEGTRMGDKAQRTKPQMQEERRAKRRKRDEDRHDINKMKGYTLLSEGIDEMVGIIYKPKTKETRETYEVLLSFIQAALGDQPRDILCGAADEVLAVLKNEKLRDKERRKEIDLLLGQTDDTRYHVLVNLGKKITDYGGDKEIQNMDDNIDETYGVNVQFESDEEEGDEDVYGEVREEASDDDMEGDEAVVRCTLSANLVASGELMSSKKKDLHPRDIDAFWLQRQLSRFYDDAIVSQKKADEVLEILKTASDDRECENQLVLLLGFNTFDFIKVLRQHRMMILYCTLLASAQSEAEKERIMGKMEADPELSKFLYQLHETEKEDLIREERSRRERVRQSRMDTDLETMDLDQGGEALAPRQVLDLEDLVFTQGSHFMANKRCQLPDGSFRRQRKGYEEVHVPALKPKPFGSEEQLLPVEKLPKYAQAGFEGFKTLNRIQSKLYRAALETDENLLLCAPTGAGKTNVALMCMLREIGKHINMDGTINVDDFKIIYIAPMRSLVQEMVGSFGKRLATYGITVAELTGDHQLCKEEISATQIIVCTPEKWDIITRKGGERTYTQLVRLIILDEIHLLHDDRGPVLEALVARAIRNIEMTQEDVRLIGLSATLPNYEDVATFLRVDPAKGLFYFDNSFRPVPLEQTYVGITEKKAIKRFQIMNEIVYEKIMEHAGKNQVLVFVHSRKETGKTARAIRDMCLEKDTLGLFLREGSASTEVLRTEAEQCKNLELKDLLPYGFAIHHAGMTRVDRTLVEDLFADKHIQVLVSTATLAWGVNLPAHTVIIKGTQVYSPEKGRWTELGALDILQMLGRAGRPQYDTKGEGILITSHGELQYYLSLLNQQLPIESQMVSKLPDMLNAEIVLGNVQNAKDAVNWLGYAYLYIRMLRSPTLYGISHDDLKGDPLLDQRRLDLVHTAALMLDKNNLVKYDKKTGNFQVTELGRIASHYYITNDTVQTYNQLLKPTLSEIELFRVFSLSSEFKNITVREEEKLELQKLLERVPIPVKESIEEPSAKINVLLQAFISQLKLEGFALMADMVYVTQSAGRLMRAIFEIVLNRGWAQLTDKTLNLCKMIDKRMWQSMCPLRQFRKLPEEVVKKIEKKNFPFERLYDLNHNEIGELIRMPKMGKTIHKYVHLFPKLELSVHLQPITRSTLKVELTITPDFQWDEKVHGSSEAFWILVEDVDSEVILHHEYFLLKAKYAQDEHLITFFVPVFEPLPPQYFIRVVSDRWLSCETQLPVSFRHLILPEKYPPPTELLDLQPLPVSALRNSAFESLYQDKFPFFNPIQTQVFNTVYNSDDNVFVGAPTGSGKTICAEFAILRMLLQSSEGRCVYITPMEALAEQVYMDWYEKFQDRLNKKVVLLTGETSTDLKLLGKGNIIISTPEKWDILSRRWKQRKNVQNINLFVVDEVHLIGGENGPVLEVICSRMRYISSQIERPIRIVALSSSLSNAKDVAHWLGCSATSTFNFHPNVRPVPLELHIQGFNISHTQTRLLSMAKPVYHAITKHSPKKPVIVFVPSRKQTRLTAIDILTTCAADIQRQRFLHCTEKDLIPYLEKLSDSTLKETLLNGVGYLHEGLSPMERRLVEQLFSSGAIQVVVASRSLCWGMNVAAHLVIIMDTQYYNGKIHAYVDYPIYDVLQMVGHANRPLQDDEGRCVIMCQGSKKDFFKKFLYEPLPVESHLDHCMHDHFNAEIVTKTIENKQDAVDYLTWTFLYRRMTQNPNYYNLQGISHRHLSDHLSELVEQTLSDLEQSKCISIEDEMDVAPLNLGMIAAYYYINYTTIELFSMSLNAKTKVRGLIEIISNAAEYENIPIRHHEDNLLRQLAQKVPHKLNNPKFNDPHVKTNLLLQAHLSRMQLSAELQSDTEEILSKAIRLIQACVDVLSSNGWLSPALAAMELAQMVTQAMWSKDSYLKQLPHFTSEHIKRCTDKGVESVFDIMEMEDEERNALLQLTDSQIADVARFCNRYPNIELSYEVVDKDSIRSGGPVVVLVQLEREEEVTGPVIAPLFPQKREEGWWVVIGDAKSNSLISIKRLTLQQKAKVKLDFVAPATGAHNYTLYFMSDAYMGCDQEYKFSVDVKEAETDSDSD
UniProt P62318, whole entry, looked up: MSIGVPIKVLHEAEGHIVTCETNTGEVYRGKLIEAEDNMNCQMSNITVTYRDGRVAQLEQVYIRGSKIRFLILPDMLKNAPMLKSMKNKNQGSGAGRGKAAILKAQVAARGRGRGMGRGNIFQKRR
UniProt Q92925, whole entry, looked up: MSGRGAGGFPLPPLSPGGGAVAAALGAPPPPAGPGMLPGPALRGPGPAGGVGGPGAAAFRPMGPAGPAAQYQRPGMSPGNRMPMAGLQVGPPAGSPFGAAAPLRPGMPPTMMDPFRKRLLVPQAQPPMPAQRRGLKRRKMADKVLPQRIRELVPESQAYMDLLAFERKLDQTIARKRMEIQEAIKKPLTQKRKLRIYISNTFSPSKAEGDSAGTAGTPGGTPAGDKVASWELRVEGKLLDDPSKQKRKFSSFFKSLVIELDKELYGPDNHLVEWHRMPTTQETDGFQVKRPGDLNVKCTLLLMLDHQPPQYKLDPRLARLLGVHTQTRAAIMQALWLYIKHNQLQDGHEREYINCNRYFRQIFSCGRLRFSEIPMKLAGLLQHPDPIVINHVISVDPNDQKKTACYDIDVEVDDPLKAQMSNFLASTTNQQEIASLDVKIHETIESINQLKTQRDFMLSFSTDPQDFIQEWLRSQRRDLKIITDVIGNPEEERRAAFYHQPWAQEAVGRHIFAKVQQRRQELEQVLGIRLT
UniProt O60271: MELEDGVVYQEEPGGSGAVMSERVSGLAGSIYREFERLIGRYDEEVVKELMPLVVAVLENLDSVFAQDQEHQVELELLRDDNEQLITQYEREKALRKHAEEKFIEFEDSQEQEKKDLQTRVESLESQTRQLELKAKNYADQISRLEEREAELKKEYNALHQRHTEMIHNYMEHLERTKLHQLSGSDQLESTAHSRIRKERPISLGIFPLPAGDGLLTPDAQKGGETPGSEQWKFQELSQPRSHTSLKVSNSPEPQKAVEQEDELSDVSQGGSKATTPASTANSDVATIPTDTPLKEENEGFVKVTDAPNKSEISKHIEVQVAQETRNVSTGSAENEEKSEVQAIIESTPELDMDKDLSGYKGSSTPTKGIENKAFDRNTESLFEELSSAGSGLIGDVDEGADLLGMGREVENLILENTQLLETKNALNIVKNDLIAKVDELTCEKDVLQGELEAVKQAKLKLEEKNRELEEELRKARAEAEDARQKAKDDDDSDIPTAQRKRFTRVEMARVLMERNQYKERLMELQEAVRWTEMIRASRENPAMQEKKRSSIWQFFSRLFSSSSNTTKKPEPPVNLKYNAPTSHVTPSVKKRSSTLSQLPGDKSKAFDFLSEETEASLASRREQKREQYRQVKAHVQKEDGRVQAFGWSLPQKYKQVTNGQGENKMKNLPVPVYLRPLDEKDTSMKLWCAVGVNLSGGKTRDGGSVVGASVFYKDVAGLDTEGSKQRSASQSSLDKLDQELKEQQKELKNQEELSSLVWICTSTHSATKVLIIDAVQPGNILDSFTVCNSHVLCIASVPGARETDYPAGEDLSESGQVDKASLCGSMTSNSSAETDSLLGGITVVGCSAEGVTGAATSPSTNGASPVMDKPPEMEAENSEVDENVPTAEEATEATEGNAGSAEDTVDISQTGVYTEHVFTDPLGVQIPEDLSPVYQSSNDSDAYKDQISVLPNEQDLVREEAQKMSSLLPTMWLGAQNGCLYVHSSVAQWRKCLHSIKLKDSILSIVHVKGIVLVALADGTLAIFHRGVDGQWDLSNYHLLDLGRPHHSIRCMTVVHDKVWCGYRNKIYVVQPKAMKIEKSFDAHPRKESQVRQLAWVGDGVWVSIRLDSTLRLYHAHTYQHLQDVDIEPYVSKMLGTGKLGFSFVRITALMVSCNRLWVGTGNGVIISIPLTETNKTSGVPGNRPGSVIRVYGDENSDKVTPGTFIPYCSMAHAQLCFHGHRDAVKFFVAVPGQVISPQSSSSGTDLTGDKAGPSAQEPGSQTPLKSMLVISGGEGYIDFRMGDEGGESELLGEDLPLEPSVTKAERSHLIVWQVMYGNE
UniProt O00161: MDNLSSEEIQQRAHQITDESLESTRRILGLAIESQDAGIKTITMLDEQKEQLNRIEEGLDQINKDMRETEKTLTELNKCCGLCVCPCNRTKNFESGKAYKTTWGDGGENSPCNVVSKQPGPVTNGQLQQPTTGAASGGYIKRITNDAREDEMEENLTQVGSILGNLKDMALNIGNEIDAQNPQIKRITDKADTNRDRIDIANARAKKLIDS
UniProt Q9UPR3: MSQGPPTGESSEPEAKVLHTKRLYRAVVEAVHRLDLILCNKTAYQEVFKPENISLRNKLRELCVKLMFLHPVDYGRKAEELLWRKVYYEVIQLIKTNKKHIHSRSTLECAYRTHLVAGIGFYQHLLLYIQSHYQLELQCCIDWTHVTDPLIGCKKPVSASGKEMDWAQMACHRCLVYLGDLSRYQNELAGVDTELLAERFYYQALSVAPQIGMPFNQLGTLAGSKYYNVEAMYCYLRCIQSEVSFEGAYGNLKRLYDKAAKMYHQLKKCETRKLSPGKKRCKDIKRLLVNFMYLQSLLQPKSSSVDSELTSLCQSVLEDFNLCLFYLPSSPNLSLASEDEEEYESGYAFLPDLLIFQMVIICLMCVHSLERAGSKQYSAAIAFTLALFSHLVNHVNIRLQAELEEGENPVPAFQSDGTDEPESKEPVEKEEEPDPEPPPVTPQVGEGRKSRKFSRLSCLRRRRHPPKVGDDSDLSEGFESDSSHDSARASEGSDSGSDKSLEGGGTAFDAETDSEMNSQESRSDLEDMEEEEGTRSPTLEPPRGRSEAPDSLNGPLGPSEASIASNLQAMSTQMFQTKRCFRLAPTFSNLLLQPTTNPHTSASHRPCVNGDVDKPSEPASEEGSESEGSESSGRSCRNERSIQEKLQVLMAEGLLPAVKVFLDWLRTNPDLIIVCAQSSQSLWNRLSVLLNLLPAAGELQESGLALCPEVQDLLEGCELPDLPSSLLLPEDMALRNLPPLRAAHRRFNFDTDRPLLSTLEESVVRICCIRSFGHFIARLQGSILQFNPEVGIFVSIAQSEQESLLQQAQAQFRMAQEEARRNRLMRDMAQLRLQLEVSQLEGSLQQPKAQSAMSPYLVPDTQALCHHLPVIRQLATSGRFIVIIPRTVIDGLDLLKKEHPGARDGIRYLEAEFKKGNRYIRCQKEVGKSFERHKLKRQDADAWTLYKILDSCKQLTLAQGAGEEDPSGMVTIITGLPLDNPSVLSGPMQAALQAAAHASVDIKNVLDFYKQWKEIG
UniProt Q7Z3B0: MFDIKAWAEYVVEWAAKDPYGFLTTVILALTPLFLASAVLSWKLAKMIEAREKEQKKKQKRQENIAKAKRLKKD
UniProt Q15036: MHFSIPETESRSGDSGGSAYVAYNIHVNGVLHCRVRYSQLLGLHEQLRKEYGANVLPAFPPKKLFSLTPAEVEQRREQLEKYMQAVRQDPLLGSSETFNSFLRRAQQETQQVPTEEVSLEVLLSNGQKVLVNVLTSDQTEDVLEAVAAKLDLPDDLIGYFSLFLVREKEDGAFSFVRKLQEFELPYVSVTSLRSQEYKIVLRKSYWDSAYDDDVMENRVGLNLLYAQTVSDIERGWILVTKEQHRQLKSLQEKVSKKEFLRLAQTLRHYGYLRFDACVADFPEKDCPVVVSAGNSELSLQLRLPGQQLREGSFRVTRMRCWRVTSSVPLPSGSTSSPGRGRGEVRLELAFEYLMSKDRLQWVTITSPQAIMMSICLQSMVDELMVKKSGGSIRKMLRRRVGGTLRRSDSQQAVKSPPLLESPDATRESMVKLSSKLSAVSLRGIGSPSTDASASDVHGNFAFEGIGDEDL
UniProt Q6GMV2: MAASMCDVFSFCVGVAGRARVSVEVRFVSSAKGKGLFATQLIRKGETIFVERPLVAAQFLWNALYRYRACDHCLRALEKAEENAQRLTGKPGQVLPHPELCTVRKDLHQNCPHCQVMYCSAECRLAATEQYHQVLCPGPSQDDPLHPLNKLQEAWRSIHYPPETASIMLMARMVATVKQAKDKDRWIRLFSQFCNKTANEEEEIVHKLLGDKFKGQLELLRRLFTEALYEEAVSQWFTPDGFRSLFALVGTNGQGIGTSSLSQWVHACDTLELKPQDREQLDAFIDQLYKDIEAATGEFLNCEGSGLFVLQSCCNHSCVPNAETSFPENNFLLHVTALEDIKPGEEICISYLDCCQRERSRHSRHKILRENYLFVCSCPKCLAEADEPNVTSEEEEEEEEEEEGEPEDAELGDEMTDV

The targets below were run with COC(=O)N[C@@H](C)CNc1nccc(-c2cn(C(C)C)nc2-c2cc(Cl)cc(NS(C)(=O)=O)c2F)n1 [encorafenib] (assay: log2 fold change, soluble protein after heating vs DMSO (PISA); higher = thermal stabilisation; K562 lysate, 10 uM; active = over 0.2 and 3.5 SD of the protein, either way, in both replicates (recomputed)).
Method in brief: (§1)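 Quantification was by TMTpro 16plex LC-MS/MS with equalised channel sums, applied to the supernatant after 21,000xg for 90 min. Samples were crude K562 extract at 1 mg/mL protein in PBS pH 7.4 with 1 mM MgCl2, treated with 10 μM compound for 30 min, heated for 3 min across 48°C-58°C, pooled and brought to 0.5% NP-40 at 4°C. Values are log-two fold changes in thermal stability relative to solvent controls, from duplicates.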

log2 fold change, inactive:
SNX6, A0A0A0MRI2 0.007
SNCG (UniProt O76070) -0.011
SMNDC1 (UniProt O75940) -0.033
SNRNP200 (UniProt O75643) 0.004
SOS1 (UniProt Q07889) 0.051
SMC3 (UniProt Q9UQE7) -0.007
SMARCA5 (UniProt O60264) 0.019
SMARCB1 (UniProt Q12824) -0.014
SNRPD3 (UniProt P62318) -0.014
SON isoform 9 (UniProt P18583) 0.081
SND1 (UniProt Q7KZF4) -0.019
SPARC (UniProt P09486) -0.016
SMARCD2 (UniProt Q92925) -0.01
SPAG9 (UniProt O60271) 0.002
SMG9 (UniProt Q9H0W8) 0.032
SNAP23 (UniProt O00161) 0
SNRPB2 (UniProt P08579) 0.036
SNX1 (UniProt Q13596) 0.019
SORBS1 isoform 8 (UniProt Q9BX66) 0
SMG5 (UniProt Q9UPR3) 0.067
SNW1 (UniProt Q13573) 0.02
SMIM15 (UniProt Q7Z3B0) 0.002
SNRPG (UniProt P62308) 0.005
SNX17 (UniProt Q15036) -0.006
SMUG1 (UniProt Q53HV7) 0.13
SNRPD2 (UniProt P62316) 0.005
SMYD5 (UniProt Q6GMV2) -0.055
SNX9 (UniProt Q9Y5X1) 0.007
SNRPB isoform 3 (UniProt P14678) 0.002
SNRPC (UniProt Q5TAL2) 0.032

These targets were tested with COC(=O)[C@H](CCSC)NC(=O)C1=C(C=C(C=C1)NC[C@H](CS)N)C2=CC=CC=C2 in the same assay as above.
Method in brief: as §1

log2 fold change, inactive:
SNX6, A0A0A0MRI2 0.171
SNCG (UniProt O76070) 0.004
SMNDC1 (UniProt O75940) -0.008
SNRNP200 (UniProt O75643) 0.053
SOS1 (UniProt Q07889) 0.124
SMC3 (UniProt Q9UQE7) 0.002
SMARCA5 (UniProt O60264) 0.073
SMARCB1 (UniProt Q12824) 0.152
SNRPD3 (UniProt P62318) 0.027
SON isoform 9 (UniProt P18583) 0.057
SND1 (UniProt Q7KZF4) 0.195
SPARC (UniProt P09486) -0.11
SMARCD2 (UniProt Q92925) 0.059
SPAG9 (UniProt O60271) 0.01
SMG9 (UniProt Q9H0W8) -0.049
SNAP23 (UniProt O00161) -0.033
SNRPB2 (UniProt P08579) 0.016
SNX1 (UniProt Q13596) 0.021
SORBS1 isoform 8 (UniProt Q9BX66) -0.019
SMG5 (UniProt Q9UPR3) 0.058
SNW1 (UniProt Q13573) -0.119
SMIM15 (UniProt Q7Z3B0) -0.057
SNRPG (UniProt P62308) -0.034
SNX17 (UniProt Q15036) -0.048
SMUG1 (UniProt Q53HV7) -0.076
SNRPD2 (UniProt P62316) -0.027
SMYD5 (UniProt Q6GMV2) 0.028
SNX9 (UniProt Q9Y5X1) 0.01
SNRPB isoform 3 (UniProt P14678) -0.001
SNRPC (UniProt Q5TAL2) -0.05

These targets were tested with COc1cc(Nc2ncc3c(n2)-c2ccc(Cl)cc2C(c2c(F)cccc2OC)=NC3)ccc1C(=O)O [alisertib] in the same assay as above.
Method in brief: as §1

log2 fold change, inactive:
SNX6, A0A0A0MRI2 -0.008
SNCG (UniProt O76070) 0.015
SMNDC1 (UniProt O75940) 0.021
SNRNP200 (UniProt O75643) 0.006
SOS1 (UniProt Q07889) -0.007
SMC3 (UniProt Q9UQE7) 0.005
SMARCA5 (UniProt O60264) 0.012
SMARCB1 (UniProt Q12824) -0.012
SNRPD3 (UniProt P62318) 0.017
SON isoform 9 (UniProt P18583) 0.026
SND1 (UniProt Q7KZF4) 0.026
SMARCD2 (UniProt Q92925) -0.005
SPAG9 (UniProt O60271) -0.005
SMG9 (UniProt Q9H0W8) 0.024
SNAP23 (UniProt O00161) -0.015
SNRPB2 (UniProt P08579) -0.048
SNX1 (UniProt Q13596) 0.009
SORBS1 isoform 8 (UniProt Q9BX66) 0.001
SMG5 (UniProt Q9UPR3) 0.04
SNW1 (UniProt Q13573) 0.014
SMIM15 (UniProt Q7Z3B0) -0.036
SNRPG (UniProt P62308) 0.003
SNX17 (UniProt Q15036) -0.068
SMUG1 (UniProt Q53HV7) 0.059
SNRPD2 (UniProt P62316) 0.014
SMYD5 (UniProt Q6GMV2) -0.032
SNX9 (UniProt Q9Y5X1) -0.01
SNRPB isoform 3 (UniProt P14678) -0.013
SNRPC (UniProt Q5TAL2) -0.05
